# Source: PubChem BioAssay AID2685 (National Center for Advancing Translational Sciences (NCATS), 2010)
# This is one part of the list. Further columns of the screen follow, without active or inactive calls. Compounds called inactive in the main read-out are mostly missing here. Potencies come from curve fits of mixed quality, noted in brackets.
# Assay: qHTS Assay for Lipid Storage Modulators in Drosophila S3 Cells;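 for cell number change: cells counted by Cell Tracker Red CMTPX staining in the red channel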
# Conditions: BODIPY lipid droplet fluorescence, 18-24 h; for cell number change: measured here: cell count max response, cells fed with added oleic acid
# Outline: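 Laser-scanning cytometry quantifies lipid droplet accumulation (500–530 nm total intensity; droplet/cell object ratio) in oleic acid-fed (400 uM added) Drosophila S3 cells treated with a concentration series. 20 uM Triacsin C defined 100% inhibition.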
# [1] = measured here: lipid fluorescence (Fed channel) AC50, cells fed with added oleic acid
# [2] = measured here: cell number channel AC50, cells fed with added oleic acid
Structure (SMILES),cell number change,AC50 [1],AC50 [2]
COc1ccc(CCNC(=O)C2CCN(S(=O)(=O)c3ccc(-n4cnnn4)cc3)CC2)cc1OC,-0.231%,"580 nM [falling, single point]",
COc1cccc(CNC(=O)CCS(=O)(=O)c2ccc3c(c2)NC(=O)CS3)c1,-14.2%,"20600 nM [rising, single point]",
O=C(c1cccs1)N1CCCC(c2nc3c(nnn3Cc3cccc(Cl)c3)c(=O)[nH]2)C1 (stereo unspecified),7.83%,,
COc1ccccc1C(=O)Nc1ccc2c(c1)C(=O)NC2=O,-1.2%,"29100 nM [falling, single point]",
O=C(Cc1cccs1)NCc1ccc(Cl)cc1,-6.61%,,
COc1ccc(N(CC(=O)NCCc2ccccc2)C(=O)c2csnn2)cc1,-11.1%,,
CC(C)[C@H](NC(=O)[C@H](Cc1ccccc1)n1c(=O)[nH]c2ccccc2c1=O)C(=O)N[C@@H](Cc1ccccc1)C(=O)O,-4.53%,"517 nM [falling, single point]",
CCN(c1c(C)n(C)n(-c2ccccc2)c1=O)S(C)(=O)=O,,,"5170 nM [falling, partial curve]"
O=S(=O)(Nc1cc(F)ccc1F)c1cccc2nonc12,-11.3%,"31600 nM [rising, single point]",
COc1ccc(/C=C/C(=O)NCC(=O)N/N=C/c2cccs2)cc1,14.7%,,"6510 nM [rising, single point]"
CC(=O)Nc1ccc(Nc2nc3ccccc3n3cnnc23)cc1,0.458%,"65.1 nM [rising, full curve]",
O=C(Nc1nnc(C2CC2)s1)C1CCCCC1,42.4%,"23100 nM [rising, partial curve, poor fit]","32600 nM [rising, partial curve, poor fit]"
C=CCSc1nc(N)c2c3c(sc2n1)CN(C)CC3,45%,,"20600 nM [rising, single point]"
COc1ccc(CCNC(=O)c2ccc(CS(=O)(=O)c3ccc(Br)cc3)o2)cc1OC,23.6%,,"4.11 nM [rising, full curve, poor fit]"
CCN1CCN(CCCN(Cc2ccco2)C(=S)Nc2ccc(Cl)cc2)CC1,51.9%,,
CN1CCN(c2ccc(NC(=O)COc3ccc(Cl)cc3Cl)cc2)CC1,0.0978%,,
CCNc1nc(NCC)nc(OCCNS(=O)(=O)c2ccccc2)n1,15.2%,"411 nM [rising, partial curve, poor fit]","461 nM [rising, partial curve, poor fit]"
O=C(COC(=O)c1n[nH]c2ccccc12)Nc1ccccc1,,"651 nM [falling, single point]","6510 nM [rising, single point]"
C=CCn1c(C)cc(C(=O)CSc2nnc3c(Cl)cc(Cl)cn23)c1C,31.7%,,"130 nM [rising, full curve, poor fit]"
c1ccc(OCCOc2cccc3cccnc23)cc1,-6.11%,,
Cc1ccc(NC(=O)N/C=C/c2ccco2)cc1,,,"82 nM [rising, full curve, poor fit]"

Structure (SMILES),cell number change,AC50 [1],AC50 [2]
O=S1(=O)CCC(n2nccc2-c2ccccc2)C1 (stereo unspecified),-1.42%,,
COc1ccc(/C(O)=C2/C(=O)C(=O)N(c3ccccn3)C2c2ccc(OC)c(OC)c2)cc1 (stereo unspecified),6.08%,,
COC(=O)c1c(/N=C/NOCc2ccc(Cl)cc2)sc2c1CCN(c1ncc(C(F)(F)F)cc1Cl)C2,153%,,"20600 nM [rising, single point]"
O=c1[nH]c(CSc2nc3ccccc3[nH]2)nc2c1cnn2-c1ccccc1,-2.25%,"11600 nM [falling, partial curve]",
OC(COc1cccc2ccccc12)CN1CCN(c2cccc(Cl)c2)CC1 (stereo unspecified),-62.2%,"4610 nM [falling, partial curve]","29100 nM [falling, single point]"
CN(CCNC(=O)Cn1c(=O)sc2ccccc21)Cc1ccccc1,-13.6%,,
C=CCOc1ccc(C2NC(=O)NC(C)=C2C(=O)OC)cc1 (stereo unspecified),101%,"18400 nM [rising, partial curve]","16400 nM [rising, single point]"
CCOC(=O)c1c(NC(=O)CN2C(=O)NC3(CCCCC3C)C2=O)sc(C(=O)N(C)C)c1C (stereo unspecified),-1.65%,"1160 nM [rising, full curve]",
CC(C)c1ccccc1OCCNC(=O)c1cccnc1,6.1%,"116 nM [rising, full curve, poor fit]",
COc1cccc(NC(=O)Nc2ccc3c(c2)N(C)C(=O)CS3)c1,,"2060 nM [rising, partial curve]","1460 nM [rising, partial curve]"
CCC(=O)N/C=C/n1cnc2cc(C(F)(F)F)ccc21,-22.6%,,
COc1ccc(CNC(=O)CCNS(=O)(=O)c2ccc(Br)s2)cc1,6.31%,"29100 nM [rising, single point]",
Cc1noc(C)c1C(=O)Nc1nc(-c2cc(F)ccc2F)cs1,-2.03%,"29100 nM [rising, single point]",
CCn1cc(-c2cc(C(F)(F)F)n3nc(C(=O)O)cc3n2)c(C)n1,11.8%,"6510 nM [rising, single point]",
CC1CCN(C(=O)COC(=O)C23CC4CC(CC(O)(C4)C2)C3)CC1,10.7%,"116 nM [rising, full curve]",
O=C(COc1ccc(S(=O)(=O)N2CCOCC2)cc1)N1CCN(c2ccccc2)CC1,-8.41%,"366 nM [falling, partial curve, poor fit]",
CN1CCSc2ccc(C(=O)NCc3ccccc3)cc21,9.22%,,
CC(CO)N1CCS(=O)(=O)CC1 (stereo unspecified),-25.7%,"4110 nM [falling, full curve]","65.1 nM [falling, full curve, poor fit]"
CCOC(=O)N1CCN(C(=O)CN(C)S(=O)(=O)c2ccc(OC)c(OC)c2)CC1,13.1%,"146 nM [rising, single point]",
COc1ccc(-n2cnnc2SCC(=O)Nc2ccc(C(N)=O)cc2)cc1,-3.97%,"25900 nM [falling, single point]",
C/C(COc1ccccc1)=N\NC(=O)c1nnn(-c2nonc2N)c1CSc1ccccc1,-5.73%,,"6.51 nM [falling, full curve, poor fit]"

# Shown with bars between the fields: entries from further up.
Structure (SMILES) | cell number change | AC50 [1] | AC50 [2]
O=c1[nH]c(CSc2nc3ccccc3[nH]2)nc2c1cnn2-c1ccccc1 | -2.25% | 11600 nM [falling, partial curve] | 
OC(COc1cccc2ccccc12)CN1CCN(c2cccc(Cl)c2)CC1 (stereo unspecified) | -62.2% | 4610 nM [falling, partial curve] | 29100 nM [falling, single point]
CN(CCNC(=O)Cn1c(=O)sc2ccccc21)Cc1ccccc1 | -13.6% |  | 
C=CCOc1ccc(C2NC(=O)NC(C)=C2C(=O)OC)cc1 (stereo unspecified) | 101% | 18400 nM [rising, partial curve] | 16400 nM [rising, single point]

# Following part

Structure (SMILES),cell number change,AC50 [1],AC50 [2]
Cc1ccc(C)c(NC(=O)c2cc(-c3cc(C)c(C)cc3O)n[nH]2)c1,-34.2%,,"1640 nM [falling, full curve, poor fit]"
CC(C)(C)CC(=O)N[C@@H](Cc1ccccc1)c1nc2ccccc2[nH]1,-2.7%,"6510 nM [falling, single point]",
O=C(NCCc1ccncc1)Nc1cccc(Cl)c1,11.9%,,"411 nM [rising, full curve, poor fit]"
CCn1c(SCC(=O)N2CCN(c3ccc(F)cc3)CC2)nc2ccccc2c1=O,10.7%,"731 nM [rising, full curve]",
COc1ccc(-n2c(=O)c3ccccc3n(CC(=O)NCc3ccco3)c2=O)cc1,4.94%,"184 nM [falling, full curve, poor fit]",
Cc1cccc(NS(=O)(=O)c2ccc3nc(-c4ccccc4)[nH]c3c2)c1C,3.69%,"731 nM [falling, single point]",
CCc1nnc(NC(=O)C2CC(=O)N(CCc3ccccc3)C2)s1 (stereo unspecified),6.58%,"32600 nM [rising, single point]",
Cc1ccccc1-c1ocnc1C(=O)Nc1ccccc1NC(=O)c1ccccn1,23.7%,,
COC(=O)Cn1c(=O)c2c(nc3n2CCCN3CCc2ccccc2)n(C)c1=O,,,"651 nM [rising, full curve, poor fit]"
Cc1ccc2oc(-c3ccc(C)c(NC(=O)Cc4cccs4)c3)nc2c1,3.17%,"73.1 nM [falling, full curve, poor fit]",
O=C(Nc1ccc(S(=O)(=O)Nc2nccs2)cc1)C1CC(=O)N(c2ccccc2)C1 (stereo unspecified),9.51%,,
O=C(Nc1ccccc1F)c1ccccc1-c1ccc(C(F)(F)F)cc1,17.8%,"2910 nM [rising, full curve]","1840 nM [rising, single point]"
CC1Cc2cc(S(=O)(=O)N3CCN(C)CC3)ccc2N1C(=O)C1CC1 (stereo unspecified),11.9%,"29100 nM [rising, single point]",
O=C(CSc1ccc(F)cc1)NCC1(N2CCOCC2)CCCCC1,-99.7%,,"29100 nM [falling, single point]"
CC1CCCC(C)N1/N=C/c1ccc(N(C)C)cc1 (stereo unspecified),-30%,"920 nM [falling, full curve]","1300 nM [falling, full curve, poor fit]"
O=C1CC(C(=O)NCc2ccccc2)C2(CCCC2)O1 (stereo unspecified),4.53%,,"4110 nM [falling, single point]"
CCCn1nnc2sc3c(c2c1=O)CCC(C)C3 (stereo unspecified),8.96%,"651 nM [rising, single point]",
Cc1cc(C)n2nc(C(=O)Nc3ccc4c(c3)OCO4)nc2n1,,"6510 nM [rising, single point]","130 nM [rising, full curve, poor fit]"
COc1ccc(Cl)cc1C(=O)NNC(=O)c1n[nH]c2ccccc12,83.9%,"16400 nM [rising, partial curve, poor fit]","18400 nM [rising, single point]"
CCCc1cc(=O)[nH]c(SCc2nc3ccc([N+](=O)[O-])cc3[nH]2)n1,12.5%,"18400 nM [rising, single point]",
